# This is a selection; strong and weak results do not stand in their true shares. At the low end of the ranking the order means little.
# Tests used:
# Assay in all cases: DAPPL (digital affinity profiling via proximity ligation, sequencing)
# Conditions in all cases: 10 mM Tris-HCl pH 7.5, 50 mM NaCl, 1 mM DTT, 4% glycerol, room temperature, 30 min; GST-TFs on glutathione beads, 16-mer random dsDNA library, 0.1% …; high values mean tight binding; double strand, one strand shown; scale: fold enrichment (6-mer frequency, TF over GST control)
# SPIC = biological target: T1, SPIC (UniProt Q8N5J4)
# T1 sequence: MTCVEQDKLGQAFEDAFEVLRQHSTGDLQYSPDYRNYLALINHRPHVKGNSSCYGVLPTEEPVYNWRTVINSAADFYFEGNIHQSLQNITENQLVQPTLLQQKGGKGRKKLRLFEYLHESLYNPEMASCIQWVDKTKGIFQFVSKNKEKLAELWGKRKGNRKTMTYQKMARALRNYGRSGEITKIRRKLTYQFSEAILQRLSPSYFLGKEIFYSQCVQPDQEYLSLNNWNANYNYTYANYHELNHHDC
# ELK1 = biological target: T2, ELK1 (UniProt P19419)
# T2 sequence: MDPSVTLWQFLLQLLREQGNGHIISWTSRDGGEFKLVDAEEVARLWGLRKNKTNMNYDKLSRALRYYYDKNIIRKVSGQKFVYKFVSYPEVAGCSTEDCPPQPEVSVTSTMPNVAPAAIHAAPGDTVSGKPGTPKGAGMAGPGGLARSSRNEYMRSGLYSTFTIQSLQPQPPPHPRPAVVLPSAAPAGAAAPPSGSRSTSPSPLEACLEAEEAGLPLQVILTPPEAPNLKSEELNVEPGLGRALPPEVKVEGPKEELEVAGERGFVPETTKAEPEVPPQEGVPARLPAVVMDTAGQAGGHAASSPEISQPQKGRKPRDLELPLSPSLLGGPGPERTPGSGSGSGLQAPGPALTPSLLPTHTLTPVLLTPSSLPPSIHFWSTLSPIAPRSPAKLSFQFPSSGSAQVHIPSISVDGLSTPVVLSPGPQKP
# ETS2 = biological target: T3, ETS2 (UniProt P15036)
# T3 sequence: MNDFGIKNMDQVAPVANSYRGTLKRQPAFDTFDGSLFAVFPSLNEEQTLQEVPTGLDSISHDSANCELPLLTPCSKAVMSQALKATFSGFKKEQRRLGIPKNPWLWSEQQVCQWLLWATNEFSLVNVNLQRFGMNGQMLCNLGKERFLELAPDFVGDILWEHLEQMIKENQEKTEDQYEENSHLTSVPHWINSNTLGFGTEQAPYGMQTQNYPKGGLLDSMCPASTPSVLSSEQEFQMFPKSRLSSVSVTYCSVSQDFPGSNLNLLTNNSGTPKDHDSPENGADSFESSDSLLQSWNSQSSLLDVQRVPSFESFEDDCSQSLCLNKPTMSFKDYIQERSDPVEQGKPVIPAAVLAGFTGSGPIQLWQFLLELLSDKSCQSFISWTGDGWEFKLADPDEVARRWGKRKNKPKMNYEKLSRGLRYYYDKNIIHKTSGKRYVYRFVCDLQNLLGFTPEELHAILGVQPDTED
# ETV3 = biological target: T4, ETV3 (UniProt P41162-2)
# T4 sequence: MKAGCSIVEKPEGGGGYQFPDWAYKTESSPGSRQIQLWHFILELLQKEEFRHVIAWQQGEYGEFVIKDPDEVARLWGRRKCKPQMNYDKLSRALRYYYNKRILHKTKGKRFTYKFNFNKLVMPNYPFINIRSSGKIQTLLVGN
sequence,measurement,setting,value
TTGCAG,binding signal,SPIC,1.05
CTCCCT,binding signal,SPIC,1.38
TCCTGA,binding signal,SPIC,1.32
CCTATA,binding signal,SPIC,1.35
CAAGAT,binding signal,SPIC,1.14
TATGCA,binding signal,SPIC,1.24
ACGGAA,binding signal,SPIC,1.69
TATCAA,binding signal,SPIC,0.906
ACACTC,binding signal,SPIC,1.01
TGCGCC,binding signal,SPIC,0.85
CTTCAC,binding signal,SPIC,1.57
GTTTTA,binding signal,SPIC,0.912
ATTGGC,binding signal,SPIC,0.978
GGACAT,binding signal,ELK1,1.19
same,binding signal,SPIC,1.28
TTCCAA,binding signal,ELK1,1.19
same,binding signal,SPIC,1.31
CGCCTG,binding signal,ELK1,1.17
same,binding signal,SPIC,0.902
GTTCTC,binding signal,ELK1,1.18
same,binding signal,SPIC,1.36
GTCCAT,binding signal,ELK1,1.07
same,binding signal,SPIC,1.17
ACCTGT,binding signal,ELK1,1.05
same,binding signal,SPIC,1.06
TTTATC,binding signal,ELK1,1.27
same,binding signal,SPIC,1.26
AAGAAC,binding signal,ELK1,1.18
same,binding signal,SPIC,1.24
AGCTAG,binding signal,ELK1,1
same,binding signal,SPIC,1.08
GCCTCT,binding signal,ELK1,1.38
same,binding signal,SPIC,1.21
CCCCTT,binding signal,ELK1,1.55
same,binding signal,SPIC,1.56
CCTGAC,binding signal,ELK1,1.57
same,binding signal,SPIC,1.3
CCACCG,binding signal,ELK1,0.994
same,binding signal,SPIC,0.925
CTGGAA,binding signal,ELK1,1.25
same,binding signal,SPIC,1.2
AAATAC,binding signal,ELK1,1.27
same,binding signal,SPIC,1.3
CGCGTT,binding signal,ELK1,0.941
same,binding signal,SPIC,0.962
CTATGG,binding signal,ELK1,1.14
same,binding signal,SPIC,1.14
CACCGC,binding signal,ELK1,1.01
same,binding signal,SPIC,0.813
ATGTTT,binding signal,ELK1,1.37
same,binding signal,SPIC,1.27
TAGAAG,binding signal,ELK1,1.19
same,binding signal,SPIC,1.31
TAGTGC,binding signal,ELK1,1.02
same,binding signal,SPIC,0.883
ACCTTT,binding signal,ELK1,1.33
same,binding signal,SPIC,1.58
CCATAC,binding signal,ELK1,1.07
same,binding signal,SPIC,1.13
CCTGTA,binding signal,ELK1,1.16
same,binding signal,SPIC,1.23
AGCTGC,binding signal,ELK1,1.16
same,binding signal,SPIC,0.932
GTTATC,binding signal,ELK1,0.996
same,binding signal,SPIC,0.994
CCACCT,binding signal,ELK1,1.12
same,binding signal,SPIC,1.19
ATACTT,binding signal,ELK1,1.6
same,binding signal,SPIC,1.58
CTTTAG,binding signal,ELK1,1.31
same,binding signal,SPIC,0.955
ACAACC,binding signal,ELK1,1.28
same,binding signal,SPIC,1.19
GCCTGC,binding signal,ELK1,1.13
same,binding signal,SPIC,0.958
TAGAAA,binding signal,ELK1,1.03
same,binding signal,SPIC,1.12
AATAAA,binding signal,ELK1,1.2
same,binding signal,SPIC,1.26
ATATTC,binding signal,ELK1,1.2
same,binding signal,SPIC,1.3
AAACGA,binding signal,ELK1,1.14
same,binding signal,SPIC,1.02
AGTAAA,binding signal,ELK1,0.923
same,binding signal,SPIC,0.974
CTGACA,binding signal,ELK1,1.18
same,binding signal,SPIC,1.03
ATCAAA,binding signal,ELK1,1.05
same,binding signal,SPIC,0.959
TACGGA,binding signal,ELK1,1.25
same,binding signal,SPIC,1.21
ATGGCA,binding signal,ELK1,1.22
same,binding signal,SPIC,1.21
ACTTCT,binding signal,ELK1,1.53
same,binding signal,SPIC,1.47
same,binding signal,ETS2,1.4
CGCACC,binding signal,ELK1,0.957
same,binding signal,SPIC,0.912
same,binding signal,ETS2,0.965
same,binding signal,ETV3,0.955

# 7 entries drawn at random from those above:
sequence,measurement,setting,value
AAATAC,binding signal,SPIC,1.3
ATCAAA,binding signal,ELK1,1.05
ACAACC,binding signal,SPIC,1.19
AAACGA,binding signal,ELK1,1.14
GTTCTC,binding signal,SPIC,1.36
TTCCAA,binding signal,SPIC,1.31
AGCTAG,binding signal,SPIC,1.08
